# According to PubChem BioAssay AID328 (DTP/NCI, 2004):
# The list shows only some results of the screen, not a fair sample: it gathers tests that were run many times, whatever their T/C, doses with no T/C, and many T/C values between a quarter and a half above the control. Further doses and runs are listed elsewhere. T/C is the treated group as % of the vehicle group. Some doses have a count of surviving animals in place of a T/C: the source holds a T/C of zero for them, seemingly a mark for toxic or unscored doses. Some survivor counts are full or nearly so, which does not show that the dose was tolerated: the source hardly ever lists a survival T/C far under the control, and the zero likely stands for such cases as well. Survivors were counted at the toxicity check, usually on the fifth day, unless a day is given; later deaths do not show. Schedule codes are those of the source, taken here to give the interval after Q, in days (D) or hours (H), and the number of doses after X. For survival time, the PubChem record calls one and a half times the control and up active, and a quarter to a half above the control has no call in these data; cut-offs in other NCI protocols can differ. Some entries were tested several times; the results are listed from low to high. Some T/C values carry the count of animals alive at the toxicity check (mostly the fifth day); without a count, all were alive then.
# Test system: BDF1 mice, P388 leukemia ip, median survival T/C
# Experiment: NCI In Vivo Anticancer Drug Screen. Data for tumor model P388 Leukemia (intraperitoneal) in B6D2F1 (BDF1) mice
# Settings: higher T/C = longer survival
# Procedure, shortened: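 Transplantable tumour in mice; compound vs vehicle dosing; survival scored; ratio of treated to control reported.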
# [1] = T/C endpoint: median survival time, dose: 400.0 mg/kg/injection, schedule: Q01DX009 (ip), vehicle: Klucel (hydroxypropylcellulose) (HPC)
# [2] = T/C endpoint: median survival time, dose: 100.0 mg/kg/injection, schedule: Q01DX009 (ip), vehicle: saline with Tween-80
# [3] = T/C endpoint: median survival time, dose: 400.0 mg/kg/injection, schedule: Q01DX009 (ip), vehicle: saline with Tween-80
# [4] = T/C endpoint: median survival time, dose: 100.0 mg/kg/injection, schedule: Q01DX009 (ip), vehicle: Klucel (hydroxypropylcellulose) (HPC)
# [5] = T/C endpoint: median survival time, dose: 50.0 mg/kg/injection, schedule: Q01DX009 (ip), vehicle: saline with Tween-80
# [6] = T/C endpoint: median survival time, dose: 200.0 mg/kg/injection, schedule: Q01DX009 (ip), vehicle: saline with Tween-80
# [7] = T/C endpoint: median survival time, dose: 10.0 mg/kg/injection, schedule: Q01DX009 (ip), vehicle: saline
# [8] = T/C endpoint: median survival time, dose: 12.5 mg/kg/injection, schedule: Q04DX003 (ip), vehicle: saline
# [9] = T/C endpoint: median survival time, dose: 3.12 mg/kg/injection, schedule: Q01DX009 (ip), vehicle: saline
# [10] = T/C endpoint: median survival time, dose: 4.68 mg/kg/injection, schedule: Q01DX009 (ip), vehicle: saline
smiles,measurement,setting,value
N#Cc1ccc(-c2ccc(C#N)cc2Br)c(Br)c1,T/C,"T/C endpoint: median survival time, dose: 50.0 mg/kg/injection, schedule: Q01DX009 (ip), vehicle: Klucel (hydroxypropylcellulose) (HPC)",125 % of control
same,survivor count,"T/C endpoint: median survival time, dose: 200.0 mg/kg/injection, schedule: Q01DX009 (ip), vehicle: Klucel (hydroxypropylcellulose) (HPC)",6 of 6
same,survivor count,[1],5 of 6
CCCCCCCC/C=C\CCCCCCCC(=O)OC,T/C,[2],125 % of control
same,T/C,[3],125 % of control
CCC[CH2][Sn]1([CH2]CCC)[S]CC[N]1S(=O)(=O)c1ccc(C)cc1,T/C,"T/C endpoint: median survival time, dose: 1.5 mg/kg/injection, schedule: Q01DX009 (ip), vehicle: gum acacia",141 % of control
same,survivor count,"T/C endpoint: median survival time, dose: 6.0 mg/kg/injection, schedule: Q01DX009 (ip), vehicle: gum acacia",6 of 6
same,survivor count,"T/C endpoint: median survival time, dose: 12.5 mg/kg/injection, schedule: Q01DX009 (ip), vehicle: gum acacia",0 of 6
same,survivor count,"T/C endpoint: median survival time, dose: 25.0 mg/kg/injection, schedule: Q01DX009 (ip), vehicle: gum acacia",0 of 6
same,survivor count,"T/C endpoint: median survival time, dose: 50.0 mg/kg/injection, schedule: Q01DX009 (ip), vehicle: gum acacia",0 of 6
CCOC(=O)CCOc1ccccc1N(CCCl)CCCl,T/C,"T/C endpoint: median survival time, dose: 3.0 mg/kg/injection, schedule: Q01DX009 (ip), vehicle: saline",126 % of control
same,T/C,"T/C endpoint: median survival time, dose: 6.0 mg/kg/injection, schedule: Q01DX009 (ip), vehicle: saline",134 % of control
same,T/C,"T/C endpoint: median survival time, dose: 6.25 mg/kg/injection, schedule: Q04DX003 (ip), vehicle: other",145 % of control
same,T/C,"T/C endpoint: median survival time, dose: 8.0 mg/kg/injection, schedule: Q04DX003 (ip), vehicle: saline",126 % of control
same,T/C,"T/C endpoint: median survival time, dose: 18.0 mg/kg/injection, schedule: Q04DX003 (ip), vehicle: saline",147 % of control
same,survivor count,"T/C endpoint: median survival time, dose: 37.5 mg/kg/injection, schedule: Q04DX003 (ip), vehicle: other",1 of 6
COc1cccc(C2N=NC3=C(CCCC3)N2O)c1O (configuration not stated),survivor count,[4],6 of 6
O=C(CC(c1ccccc1)c1c(O)c2ccccc2oc1=O)c1ccccc1 (configuration not stated),survivor count,"T/C endpoint: median survival time, dose: 6.25 mg/kg/injection, schedule: Q01DX009 (ip), vehicle: saline with Tween-80",5 of 6
same,survivor count,"T/C endpoint: median survival time, dose: 12.5 mg/kg/injection, schedule: Q01DX009 (ip), vehicle: saline with Tween-80",3 of 6
same,survivor count,"T/C endpoint: median survival time, dose: 25.0 mg/kg/injection, schedule: Q01DX009 (ip), vehicle: saline with Tween-80",2 of 6
same,survivor count,[5],1 of 6
same,survivor count,[2],1 of 6
same,survivor count,[6],2 of 6
Cn1c2c(c3ccccc3c1=O)C(=O)c1ccccc1-2,T/C,[2],126 % of control
same,T/C,[3],126 % of control
CC(=O)NC1=C(N2CC2C)C(=O)C(NC(C)=O)=C(N2CC2C)C1=O (configuration not stated),T/C,"T/C endpoint: median survival time, dose: 2.5 mg/kg/injection, schedule: Q01DX009 (ip), vehicle: saline",125 and 142 % of control
same,survivor count,[7],6 of 6
same,T/C,"T/C endpoint: median survival time, dose: 10.0 mg/kg/injection, schedule: Q04DX003 (ip), vehicle: saline",131 % of control
same,T/C,[8],136 % of control
same,T/C,"T/C endpoint: median survival time, dose: 25.0 mg/kg/injection, schedule: Q04DX003 (ip), vehicle: saline",127 % of control
same,T/C,"T/C endpoint: median survival time, dose: 37.5 mg/kg/injection, schedule: Q04DX003 (ip), vehicle: saline",130 % of control
same,survivor count,"T/C endpoint: median survival time, dose: 100.0 mg/kg/injection, schedule: Q04DX003 (ip), vehicle: saline",5 of 6
same,survivor count,"T/C endpoint: median survival time, dose: 200.0 mg/kg/injection, schedule: Q04DX003 (ip), vehicle: saline",3 of 6
CC1CCCCN1CC(Cl)Cl (configuration not stated),survivor count,"T/C endpoint: median survival time, dose: 200.0 mg/kg/injection, schedule: Q01DX009 (ip), vehicle: saline",2 of 5
O=C(C/C(=N\C(=S)Nc1cc(C(F)(F)F)ccc1Cl)NO)N1CCCC1,T/C,[2],131 % of control
same,survivor count,[6],6 of 6
CCCCn1c2nc(=O)[nH]c(=O)c-2[n+]([O-])c2ccccc21,survivor count,"T/C endpoint: median survival time, dose: 200.0 mg/kg/injection, schedule: Q01DX001 (ip), vehicle: saline with Tween-80",0 of 6
same,survivor count,"T/C endpoint: median survival time, dose: 400.0 mg/kg/injection, schedule: Q01DX001 (ip), vehicle: saline with Tween-80",0 of 6
c1cc[c]([Pb]([c]2ccccc2)([c]2ccccc2)[n]2ccc3ccccc32)cc1,T/C,"T/C endpoint: median survival time, dose: 1.56 mg/kg/injection, schedule: Q01DX009 (ip), vehicle: saline",133 % of control
same,survivor count,"T/C endpoint: median survival time, dose: 2.05 mg/kg/injection, schedule: Q01DX009 (ip), vehicle: saline",3 of 6
same,survivor count,"T/C endpoint: median survival time, dose: 3.12 mg/kg/injection, schedule: Q01DX009 (ip), vehicle: other",5 of 6
same,T/C,[9],133 and 135 % of control
same,survivor count,[9],0 of 6
same,survivor count,"T/C endpoint: median survival time, dose: 4.68 mg/kg/injection, schedule: Q01DX009 (ip), vehicle: other",5 of 6
same,T/C,[10],130 % of control
same,survivor count,[10],3 of 6
same,survivor count,"T/C endpoint: median survival time, dose: 6.6 mg/kg/injection, schedule: Q01DX009 (ip), vehicle: saline",6 of 6
same,survivor count,[7],2 of 6
same,survivor count,"T/C endpoint: median survival time, dose: 15.0 mg/kg/injection, schedule: Q01DX009 (ip), vehicle: saline",0 of 6
O=C(CBr)Nc1nccs1,survivor count,[9],6 of 6
same,survivor count,"T/C endpoint: median survival time, dose: 6.25 mg/kg/injection, schedule: Q04DX003 (ip), vehicle: saline",6 of 6
same,T/C,[8],127 % of control
same,survivor count,"T/C endpoint: median survival time, dose: 50.0 mg/kg/injection, schedule: Q04DX003 (ip), vehicle: saline",4 of 6
CC(=O)N(C)C(C(=O)N1CC(C)CC1C(=O)N(C)C1C(=O)NC(CC(C)C)C(=O)N2CC(C)CC2C(=O)NC(CC(C)C)C(=O)N(C)C(C(C)C)C(=O)N2CCCC2C(=O)N(C)C(CC(C)C)C(=O)NCC(=O)OC1C)C(C)C (configuration not stated),T/C,"T/C endpoint: median survival time, dose: 18.75 mg/kg/injection, schedule: Q01DX009 (ip), vehicle: Klucel (hydroxypropylcellulose) (HPC)",127 % of control
C=C1C(=O)OC2/C=C(\C)CC(O)/C=C(/C)CC(OC(=O)C3(C)OC3C)C12 (configuration not stated),survivor count,"T/C endpoint: median survival time, dose: 400.0 mg/kg/injection, schedule: Q04DX002 (ip), vehicle: Klucel (hydroxypropylcellulose) (HPC)",4 of 6
[O-][n+]1c(CN2CCCCC2)nc2cccc3c2c1-c1ccccc1-3,T/C,[4],144 % of control
same,survivor count,"T/C endpoint: median survival time, dose: 100.0 mg/kg/injection, schedule: Q01DX009 (ip), vehicle: saline",5 of 8
same,T/C,[6],131 % of control [7 of 8 alive]
same,T/C,"T/C endpoint: median survival time, dose: 200.0 mg/kg/injection, schedule: Q08HX027 (ip), vehicle: saline",128 % of control
same,T/C,[1],144 % of control
same,T/C,[3],133 % of control
CCCCCCCCC(O)CCC (configuration not stated),survivor count,"T/C endpoint: median survival time, dose: 400.0 mg/kg/injection, schedule: Q01DX009 (ip), vehicle: saline",6 of 6
CC1OC(OC2CC(O)C3(CO)C4C(O)CC5(C)C(C6=CC(=O)OC6)CCC5(O)C4CCC3(O)C2)C(O)C(O)C1O (configuration not stated),survivor count,"T/C endpoint: median survival time, dose: 6.0 mg/kg/injection, schedule: Q01DX010 (ip), vehicle: saline",3 of 6
Cn1cc(/C=C/C(N)=O)c2nccnc21,survivor count,"T/C endpoint: median survival time, dose: 100.0 mg/kg/injection, schedule: Q01DX009 (ip), vehicle: water",2 of 6
same,survivor count,"T/C endpoint: median survival time, dose: 200.0 mg/kg/injection, schedule: Q01DX009 (ip), vehicle: water",0 of 6
c1ccc2c(c1)Cc1nc3ccccc3nc1-2,T/C,"T/C endpoint: median survival time, dose: 12.5 mg/kg/injection, schedule: Q01DX009 (ip), vehicle: water",126 % of control
CC(C)(O)CCC(=O)C(C)(O)C1C(O)CC2(C)C3CC=C4C(CC(O)C(=O)C4(C)C)C3(C)C(=O)CC12C (configuration not stated),T/C,"T/C endpoint: mean survival time, dose: 4.0 mg/kg/injection, schedule: Q01DX010 (ip), vehicle: carboxymethylcellulose (CMC)",135 % of control [5 of 6 alive]
same,survivor count,"T/C endpoint: mean survival time, dose: 8.0 mg/kg/injection, schedule: Q01DX010 (ip), vehicle: carboxymethylcellulose (CMC)",1 of 6
same,survivor count,"T/C endpoint: median survival time, dose: 8.0 mg/kg/injection, schedule: Q01DX010 (ip), vehicle: carboxymethylcellulose (CMC)",3 of 6
COc1ccc2c(c1)NC(c1ccccc1C(=O)O)c1cccn1-2 (configuration not stated),survivor count,[5],6 of 6
same,survivor count,[2],6 of 6
same,survivor count,[6],5 of 6
